{"source": "patent US20080057559A1", "about": "“Rate measurements of biomolecular reactions using electrochemiluminescence” (BioVeris Corporation, priority 1994, published 2008)", "molecular_target": "T1, Glucose-6-phosphate dehydrogenase (Leuconostoc mesenteroides, UniProt P11411)", "T1 sequence (P11411 1-486)": "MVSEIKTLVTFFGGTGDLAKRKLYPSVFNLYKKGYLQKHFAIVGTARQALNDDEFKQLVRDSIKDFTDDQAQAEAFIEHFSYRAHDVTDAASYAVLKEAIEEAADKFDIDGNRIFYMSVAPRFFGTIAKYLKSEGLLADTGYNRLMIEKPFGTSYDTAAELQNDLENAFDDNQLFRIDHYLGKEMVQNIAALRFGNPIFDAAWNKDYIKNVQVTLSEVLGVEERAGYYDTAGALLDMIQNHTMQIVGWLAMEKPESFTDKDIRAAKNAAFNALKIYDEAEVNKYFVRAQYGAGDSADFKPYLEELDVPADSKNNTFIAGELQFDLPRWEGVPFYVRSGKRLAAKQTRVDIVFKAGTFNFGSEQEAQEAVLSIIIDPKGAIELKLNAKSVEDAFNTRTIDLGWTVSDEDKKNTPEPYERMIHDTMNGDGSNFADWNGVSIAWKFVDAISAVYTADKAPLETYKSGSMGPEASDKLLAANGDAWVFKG", "test": "G-6-PDH enzymatic reaction followed by electrochemiluminescence, phosphate buffer concentration varied", "format": "biochemical", "note": "At least one read-out could not be matched to a standard name with certainty.", "data": [{"substance": "Phosphate buffer", "values": [{"measurement": "t½ from electrochemiluminescence", "setting": "phosphate buffer concentration 50 mM, time to convert half the substrate into products", "result": 1.37, "unit": "min"}, {"measurement": "t½ from electrochemiluminescence", "setting": "phosphate buffer concentration 100 mM", "result": 2.30, "unit": "min"}, {"measurement": "t½ from electrochemiluminescence", "setting": "phosphate buffer concentration 150 mM", "result": 4.73, "unit": "min"}, {"measurement": "t½ from electrochemiluminescence", "setting": "phosphate buffer concentration 200 mM", "result": 7.03, "unit": "min"}]}]}
